In PMC12439152 one finds binding data, which are given here for one substance.

The chains behind the UniProt entries cited, without tags or fusion partners.
UniProt Q9Y572: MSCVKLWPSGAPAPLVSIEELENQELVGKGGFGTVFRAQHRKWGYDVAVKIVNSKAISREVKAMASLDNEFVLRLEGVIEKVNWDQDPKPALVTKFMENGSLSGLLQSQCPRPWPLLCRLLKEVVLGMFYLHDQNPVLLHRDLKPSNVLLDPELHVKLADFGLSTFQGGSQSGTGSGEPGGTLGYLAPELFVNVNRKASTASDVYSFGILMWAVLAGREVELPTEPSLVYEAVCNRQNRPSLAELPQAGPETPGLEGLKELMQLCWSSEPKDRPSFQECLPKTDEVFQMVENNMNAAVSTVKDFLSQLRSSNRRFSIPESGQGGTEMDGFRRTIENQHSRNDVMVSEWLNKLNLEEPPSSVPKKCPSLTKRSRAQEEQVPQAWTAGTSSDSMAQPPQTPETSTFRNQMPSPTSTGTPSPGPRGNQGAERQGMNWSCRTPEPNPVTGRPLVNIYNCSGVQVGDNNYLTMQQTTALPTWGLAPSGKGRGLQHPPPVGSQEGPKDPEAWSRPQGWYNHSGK

These are yes or no findings as the source states them, for the method shown. Binding seen in cells or lysates may run through a third protein. Some binding calls cover weakened binding; strength is not graded here.

The target in this test is T1, acid-sensitive ion channel ASIC1a (human (endogenous in RA-FLSs)) (UniProt P78348).
T1 sequence: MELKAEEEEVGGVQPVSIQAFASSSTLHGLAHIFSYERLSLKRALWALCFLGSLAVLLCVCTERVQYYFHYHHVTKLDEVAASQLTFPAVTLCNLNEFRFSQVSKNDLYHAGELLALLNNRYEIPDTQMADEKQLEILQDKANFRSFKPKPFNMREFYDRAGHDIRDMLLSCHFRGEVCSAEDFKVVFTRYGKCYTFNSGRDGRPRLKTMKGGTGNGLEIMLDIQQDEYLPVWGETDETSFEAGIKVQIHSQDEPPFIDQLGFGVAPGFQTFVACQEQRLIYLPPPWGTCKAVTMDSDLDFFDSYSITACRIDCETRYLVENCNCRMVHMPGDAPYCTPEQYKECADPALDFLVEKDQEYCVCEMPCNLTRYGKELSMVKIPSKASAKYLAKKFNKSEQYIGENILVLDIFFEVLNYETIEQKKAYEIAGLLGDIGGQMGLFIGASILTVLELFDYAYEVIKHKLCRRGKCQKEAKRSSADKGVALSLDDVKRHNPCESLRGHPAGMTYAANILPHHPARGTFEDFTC
The test can be described thus: co-IP; RA-FLSs (pH 7.4 or pH 6.8 medium) lysed in weak lysis buffer; lysate incubated with anti-ASIC1a antibody or IgG, protein A/G, 4 C overnight, six washes; Western blot. For orientation: In western blotting, separated proteins are transferred to a membrane and probed.

Consider RIPK3 (from UniProt Q9Y572 1-518), for which the binding entry was “binds”.
